Reference: the supplement of paper PMC8728848
Some of the results follow.

Assays:
Assay in all cases: glycan array binding signal (z-score within array); higher = stronger binding
Conditions in all cases: glycan notation: IUPAC condensed, linker removed; mutation: R276L
[1] = target: GlcNAc(b1-3)Gal(b1-3)GalNAc
Outline: (§1)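 The binding signal is a Z-score computed within each array and averaged over linkers. Arrays of the same protein sequence at different concentrations or buffers were also averaged together. Data originate from 3228 arrays in the Consortium for Functional Glycomics database, kept only where the protein sequence was available.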

GlcNAc(b1-3)Gal(b1-4)Glc = target: GlcNAc(b1-3)Gal(b1-4)Glc
Outline: as §1

[2] = target: GlcNAc(b1-3)Gal(b1-4)GlcNAc
Outline: as §1

[3] = target: GlcNAc(b1-3)Gal(b1-4)GlcNAc(b1-2)Man(a1-3)[GlcNAc(b1-3)Gal(b1-4)GlcNAc(b1-2)Man(a1-6)]Man(b1-4)GlcNAc(b1-4)GlcNAc
Outline: as §1

[4] = target: GlcNAc(b1-3)Gal(b1-4)GlcNAc(b1-2)Man(a1-3)[GlcNAc(b1-3)Gal(b1-4)GlcNAc(b1-2)Man(a1-6)]Man(b1-4)GlcNAc(b1-4)[Fuc(a1-6)]GlcNAc
Outline: as §1

[5] = target: GlcNAc(b1-3)Gal(b1-4)GlcNAc(b1-2)[GlcNAc(b1-3)Gal(b1-4)GlcNAc(b1-6)]Man(a1-6)[GlcNAc(b1-3)Gal(b1-4)GlcNAc(b1-2)Man(a1-3)]Man(b1-4)GlcNAc(b1-4)GlcNAc
Outline: as §1

[6] = target: GlcNAc(b1-3)Gal(b1-4)GlcNAc(b1-3)Gal(b1-4)GlcNAc
Outline: as §1

[7] = target: GlcNAc(b1-3)Gal(b1-4)GlcNAc(b1-3)Gal(b1-4)GlcNAc(b1-2)Man(a1-3)[GlcNAc(b1-3)Gal(b1-4)GlcNAc(b1-3)Gal(b1-4)GlcNAc(b1-2)Man(a1-6)]Man(b1-4)GlcNAc(b1-4)GlcNAc
Outline: as §1

[8] = target: GlcNAc(b1-3)Gal(b1-4)GlcNAc(b1-3)Gal(b1-4)GlcNAc(b1-2)Man(a1-3)[GlcNAc(b1-3)Gal(b1-4)GlcNAc(b1-3)Gal(b1-4)GlcNAc(b1-2)Man(a1-6)]Man(b1-4)GlcNAc(b1-4)[Fuc(a1-6)]GlcNAc
Outline: as §1

[9] = target: GlcNAc(b1-3)Gal(b1-4)GlcNAc(b1-3)Gal(b1-4)GlcNAc(b1-2)[GlcNAc(b1-3)Gal(b1-4)GlcNAc(b1-3)Gal(b1-4)GlcNAc(b1-6)]Man(a1-6)[GlcNAc(b1-3)Gal(b1-4)GlcNAc(b1-3)Gal(b1-4)GlcNAc(b1-2)Man(a1-3)]Man(b1-4)GlcNAc(b1-4)[Fuc(a1-6)]GlcNAc
Outline: as §1

[10] = target: GlcNAc(b1-3)Gal(b1-4)GlcNAc(b1-3)Gal(b1-4)GlcNAc(b1-3)Gal(b1-4)GlcNAc(b1-2)Man(a1-3)[GlcNAc(b1-3)Gal(b1-4)GlcNAc(b1-3)Gal(b1-4)GlcNAc(b1-3)Gal(b1-4)GlcNAc(b1-2)Man(a1-6)]Man(b1-4)GlcNAc(b1-4)GlcNAc
Outline: as §1

[11] = target: GlcNAc(b1-3)Gal(b1-4)GlcNAc(b1-3)Gal(b1-4)GlcNAc(b1-3)Gal(b1-4)GlcNAc(b1-2)Man(a1-3)[GlcNAc(b1-3)Gal(b1-4)GlcNAc(b1-3)Gal(b1-4)GlcNAc(b1-3)Gal(b1-4)GlcNAc(b1-2)Man(a1-6)]Man(b1-4)GlcNAc(b1-4)[Fuc(a1-6)]GlcNAc
Outline: as §1

[12] = target: GlcNAc(b1-3)Gal(b1-4)GlcNAc(b1-3)Gal(b1-4)GlcNAc(b1-3)Gal(b1-4)GlcNAc(b1-2)[GlcNAc(b1-3)Gal(b1-4)GlcNAc(b1-3)Gal(b1-4)GlcNAc(b1-3)Gal(b1-4)GlcNAc(b1-6)]Man(a1-6)[GlcNAc(b1-3)Gal(b1-4)GlcNAc(b1-3)Gal(b1-4)GlcNAc(b1-3)Gal(b1-4)GlcNAc(b1-2)Man(a1-3)]Man(b1-4)GlcNAc(b1-4)[Fuc(a1-6)]GlcNAc
Outline: as §1

[13] = target: GlcNAc(b1-3)Gal(b1-4)GlcNAc(b1-3)Gal(b1-4)GlcNAc(b1-3)Gal(b1-4)GlcNAc(b1-3)Gal(b1-4)GlcNAc(b1-2)Man(a1-3)[GlcNAc(b1-3)Gal(b1-4)GlcNAc(b1-3)Gal(b1-4)GlcNAc(b1-3)Gal(b1-4)GlcNAc(b1-3)Gal(b1-4)GlcNAc(b1-2)Man(a1-6)]Man(b1-4)GlcNAc(b1-4)GlcNAc
Outline: as §1

[14] = target: GlcNAc(b1-3)Gal(b1-4)GlcNAc(b1-3)Gal(b1-4)GlcNAc(b1-3)Gal(b1-4)GlcNAc(b1-3)Gal(b1-4)GlcNAc(b1-2)Man(a1-3)[GlcNAc(b1-3)Gal(b1-4)GlcNAc(b1-3)Gal(b1-4)GlcNAc(b1-3)Gal(b1-4)GlcNAc(b1-3)Gal(b1-4)GlcNAc(b1-2)Man(a1-6)]Man(b1-4)GlcNAc(b1-4)[Fuc(a1-6)]GlcNAc
Outline: as §1

[15] = target: GlcNAc(b1-3)Gal(b1-4)GlcNAc(b1-3)Gal(b1-4)GlcNAc(b1-3)Gal(b1-4)GlcNAc(b1-3)Gal(b1-4)GlcNAc(b1-2)[GlcNAc(b1-3)Gal(b1-4)GlcNAc(b1-3)Gal(b1-4)GlcNAc(b1-3)Gal(b1-4)GlcNAc(b1-3)Gal(b1-4)GlcNAc(b1-6)]Man(a1-6)[GlcNAc(b1-3)Gal(b1-4)GlcNAc(b1-3)Gal(b1-4)GlcNAc(b1-3)Gal(b1-4)GlcNAc(b1-3)Gal(b1-4)GlcNAc(b1-2)Man(a1-3)]Man(b1-4)GlcNAc(b1-4)[Fuc(a1-6)]GlcNAc
Outline: as §1

[16] = target: GlcNAc(b1-3)Gal(b1-4)GlcNAc(b1-3)Gal(b1-4)GlcNAc(b1-3)GalNAc
Outline: as §1

[17] = target: GlcNAc(b1-3)Gal(b1-4)GlcNAc(b1-3)GalNAc
Outline: as §1

[18] = target: GlcNAc(b1-3)Gal(b1-4)GlcNAc(b1-3)[GlcNAc(b1-3)Gal(b1-4)GlcNAc(b1-3)]GalNAc
Outline: as §1

[19] = target: GlcNAc(b1-3)Gal(b1-4)GlcNAc(b1-6)[Gal(b1-3)]GalNAc
Outline: as §1

[20] = target: GlcNAc(b1-3)Gal(b1-4)GlcNAc(b1-6)[GlcNAc(b1-3)Gal(b1-3)]GalNAc
Outline: as §1

[21] = target: GlcNAc(b1-3)Gal(b1-4)GlcNAc(b1-6)[GlcNAc(b1-3)]Gal(b1-4)GlcNAc
Outline: as §1

GlcNAc(b1-3)GalNAc = target: GlcNAc(b1-3)GalNAc
Outline: as §1

GlcNAc(b1-3)Man = target: GlcNAc(b1-3)Man
Outline: as §1

[22] = target: GlcNAc(b1-3)[GlcNAc(b1-4)][GlcNAc(b1-6)]GlcNAc
Outline: as §1

[23] = target: GlcNAc(b1-3)[GlcNAc(b1-6)]Gal(b1-4)GlcNAc
Outline: as §1

[24] = target: GlcNAc(b1-3)[GlcNAc(b1-6)]GalNAc
Outline: as §1

[25] = target: GlcNAc(b1-4)Gal(b1-4)GlcNAc
Outline: as §1

GlcNAc(b1-4)GlcNAc = target: GlcNAc(b1-4)GlcNAc
Outline: as §1

[26] = target: GlcNAc(b1-4)GlcNAc(b1-4)GlcNAc
Outline: as §1

[27] = target: GlcNAc(b1-4)GlcNAc(b1-4)GlcNAc(b1-4)GlcNAc(b1-4)GlcNAc
Outline: as §1

[28] = target: GlcNAc(b1-4)GlcNAc(b1-4)GlcNAc(b1-4)GlcNAc(b1-4)GlcNAc(b1-4)GlcNAc
Outline: as §1

[29] = target: GlcNAc(b1-4)[GlcNAc(b1-6)]GalNAc
Outline: as §1

[30] = target: GlcNAc(b1-6)Gal(b1-4)GlcNAc
Outline: as §1

GlcNAc(b1-6)GalNAc = target: GlcNAc(b1-6)GalNAc
Outline: as §1

[31] = target: GlcNAc6S(b1-3)Gal(b1-4)GlcNAc
Outline: as §1

Kdn(a2-3)Gal(b1-3)GalNAc = target: Kdn(a2-3)Gal(b1-3)GalNAc
Outline: as §1

B1: SUN4P (Saccharomyces cerevisiae), P53616 (protein)
chain: MGSSHHHHHHSSGLVPRGSHNGSIYGDLADFSGPYEKFEDGTIPCGQFPSGQGVIPISWLDEGGWSGVENTDTSTGGSCKEGSYCSYACQPGMSKTQWPSDQPSDGRSIGGLLCKDGYLYRSNTDTDYLCEWGVDAAYVVSELSNDVAICLTDYPGTENMVIPTYVQAGDSLPLTVVDQDTYYTWQGLKTSAQYYVNNAGISVEDACVWGSSSSGVGNWAPLNFGAGSSDGVAYLSLIPNPNNGNALNFNVKIVAADDSSTVNGECIYENGSFSGGSDGCTVSVTAGKAKFVLYN
- glycan array binding signal (z-score) [1]: 0.424
- glycan array binding signal (z-score) (GlcNAc(b1-3)Gal(b1-4)Glc): 0.849
- glycan array binding signal (z-score) [2]: -0.504
- glycan array binding signal (z-score) [3]: 1.23
- glycan array binding signal (z-score) [4]: 0.672
- glycan array binding signal (z-score) [5]: -0.301
- glycan array binding signal (z-score) [6]: -0.557
- glycan array binding signal (z-score) [7]: -0.112
- glycan array binding signal (z-score) [8]: 0.333
- glycan array binding signal (z-score) [9]: 1.06
- glycan array binding signal (z-score) [10]: -0.003
- glycan array binding signal (z-score) [11]: 0.347
- glycan array binding signal (z-score) [12]: 0.39
- glycan array binding signal (z-score) [13]: -2.18
- glycan array binding signal (z-score) [14]: 0.711
- glycan array binding signal (z-score) [15]: 0.715
- glycan array binding signal (z-score) [16]: 1.21
- glycan array binding signal (z-score) [17]: 2.14
- glycan array binding signal (z-score) [18]: -0.211
- glycan array binding signal (z-score) [19]: -0.523
- glycan array binding signal (z-score) [20]: -0.17
- glycan array binding signal (z-score) [21]: 0.018
- glycan array binding signal (z-score) (GlcNAc(b1-3)GalNAc): -0.434
- glycan array binding signal (z-score) (GlcNAc(b1-3)Man): -0.832
- glycan array binding signal (z-score) [22]: -0.732
- glycan array binding signal (z-score) [23]: -0.185
- glycan array binding signal (z-score) [24]: -0.443
- glycan array binding signal (z-score) [25]: -0.801
- glycan array binding signal (z-score) (GlcNAc(b1-4)GlcNAc): -0.339
- glycan array binding signal (z-score) [26]: -1.86
- glycan array binding signal (z-score) [27]: -0.994
- glycan array binding signal (z-score) [28]: -1.01
- glycan array binding signal (z-score) [29]: -0.188
- glycan array binding signal (z-score) [30]: 0.112
- glycan array binding signal (z-score) (GlcNAc(b1-6)GalNAc): -0.793
- glycan array binding signal (z-score) [31]: -0.042
- glycan array binding signal (z-score) (Kdn(a2-3)Gal(b1-3)GalNAc): -0.518
